The results in this text go back to paper PMC11099078.

Results are given in words; binding and its absence hold for the method and conditions named. Binding seen in cells or lysates may run through a third protein. Here binding means that the protein was enriched with, or labelled near, the bait; the list need not be complete.

This test addresses γ-tubulin (Xenopus laevis) (X. laevis (endogenous in egg extract)) (UniProt P23330). Nature of the test: affinity purification with mass spectrometry; γ-TuRC-capped MTs from Ran(Q69L)-induced X. laevis egg extract, Paclitaxel-stabilised, pelleted, shortened, held on anti-γ-tubulin antibody coupled to Dynabeads Protein A, washed with BRB80 with 100 mM NaCl, eluted with γ-tubulin C-terminal peptide; LC-MS/MS.

B1: HAUS8 (Augmin subunit, Xenopus laevis) (protein, UniProt Q0IHJ3 1-367)
chain: MSEAGVAPIEDGSQNSSGGSSGDAALKKSKGGAKVVKSRYMQIGRSKVSKNSLANTTVCSGGKVPERGSGGTPTRRSLAPHKAKITAAVPLPALDGSIFTKEDLQSTLLDGHRIARPDLDLSVINDRTLQKITPRPVVTSEQKKPKRDTTPVNLVPEDMVEMIESQTLLLTYLTIKMQKNLFRLEEKAERNLLLVNDQKDQLQETIHMMKRDLTLLQREERLRDLIEKQDEVLTPVVTSKDPFKDNYTTFATALDSTRHQLAIKNIHITGNRHRYLEELQKHLAITKSLLEEIMPSHASENAESFDTIKDLENIVLKTDEELARSFRQILDLSFKVNKEISLQSQKAVEETCESALVRQWYFDGSLP
Consider B1, for which the binding result is listed as “binds”.

B2: HAUS3 (Augmin subunit, Xenopus laevis) (protein, UniProt Q6DCY9 1-597)
chain: MSGGDRFVQTLQKLNYPKGAQLDGEDFDWLFEAVDLKPFLDWFCSAASEQNVVPDEKLQAFNTLKESGKPVLDEKALDEVLKTFSISKVPAIEEVAIEKLEEEVKALQKQKNLHIRRRNKLQMVESGNRQMCLKSKDKEEETGRAFQEVLHLLRVTNKKLNHELQSIVNGVQTLMSFFSTPETACELSSQPIFLSQLLLDKYLSLEEQSTAALTSFTKEHFFEGMSKFVEGSDENFQLVQLNVNSFGEDGTTEDKCKEMMRLQLAYICAKHKLIQMKAKSASLKVGLQWAENNASVVQDKASQKEENLKVRITSLKNETLQIENHTNSISNEKLPGLVRDNAQLLNMPIVKGDYDLQMAHQTSCSSRQDLVCDHLMKQKASFELLQLGYELELRKHRDVYRELGSIVQELKESGDKLEERLTMLSDVNLLSASKPRSNIDSKDLTSHRLYQLLDGDNTQKLFRTYDGLESVAQKLSQDIASMRDQLEVSEQEHSLLLSKLDSHLKELRDFMYPEGNTLMLTTPELSGEFHQLGSQLEKLNHITVEILGDLQLKRKMLESNKLQQIEKQLYVYFFQNEEQLKSIVGKLEAQTGGGSSA
Take B2: the binding entry was “binds”.
